Out of some 53,000 sequences screened, about 3,700 (7%) were called active.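 The calls were made as follows: active = gene knockdowns whose robust z-score for IL-1 alpha signal is at least 2 or at most -2, so actives lie on both sides; inactive = the rest.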 The list shows a part of the results.
Assay: Components of the Cytosolic LPS Sensing Pathway: Gene Identification via Genome-wide siRNA Screen;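 also: robust z of the log signal after scaling to non-targeting control siRNA wells of the plate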
Settings: RAW264.7 macrophages, IL-1a HTRF, actives lie on both sides, screened at 100 nM (by protocol), cells primed 5 h with Pam3CSK4 first
How it was run: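 Knockdown: 100 nM siRNA, 48h, RAW264.7. Stimulation: Pam3CSK4 5 h, then LipidA via TransIT-TKO 24 h. Output: supernatant IL-1a HTRF, negative-control-normalized, log robust z-score; viability by CellTiter-Glo.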

| Sequence | z-score |
| --- | --- |
| GGAUCUGGAUUAGAUAGAUTT against Wnt3 | inactive: 0.109 |
| CCAUACUGAACGCGCUUCUTT against Klhl5 | inactive: -1.31 |
| CGCAAUUUUGAACAUGUGUTT against Kctd7 | inactive: 0.0653 |
| GCGAUAUGCAGAGAAGCGGTT against Prpf8 | inactive: -1.63 |
| GGAGGGAAAUUUGGGACUUTT against Setd6 | inactive: 1.14 |
| GGCUACUGGGCUUGUUGAATT against Cyp2d22 | inactive: 0.919 |
| GCUCCCAUUUCGUAGGAAATT against Zfp879 | inactive: -1.47 |
| GGAAGAGAGAGAGCUUAUUTT against Abca6 | inactive: -1.44 |
| GGGACUUUGAGAAAAUCUUTT against Scgn | inactive: 1.87 |
| GGUGGUUACCAUAGCUGGUTT against Arid2 | inactive: 1.67 |
| CCUCACUUCAGCAAAACCATT against Tanc1 | inactive: -1.8 |
| CCAAUAUUCAGUCCUAUAUTT against Kcnip3 | inactive: -0.918 |
| GGAAAAAAAAAACUGUCUGTT against Pitpnm2 | inactive: 0.193 |
| GGCUGAAGCAGUUUCAUUUTT against Car5a | inactive: 0.336 |
| GGGACGUAAAUCAAAUGAATT against P2ry12 | inactive: 0.096 |
| GGAUCUAUAAGGACUACAUTT against Bmp7 | active: 4.01 |
| CCUGUUAAGAUCAAUCUCATT against Ldhc | inactive: 0.48 |
| GGUGCUAAGGAGAAGAAGCTT against Plagl2 | inactive: 0.275 |
| GGAGAAUGAAGAUGAAUGUTT against Patl2 | inactive: -0.872 |
| GGCUUGACAACCUCAUGUCTT against Rnf41 | inactive: 0.716 |
| CGUGUGCCACUAAUUGGCUTT against Urod | inactive: 0.852 |
| GGACACAUGGAAGAGGAUUTT against Rnf139 | inactive: 0.513 |
| GCCGACAUCUUUGCUCAGATT against Tmco4 | inactive: 1.51 |
| GGCAAAAUAAAGGAUAGGATT against Prpf4b | inactive: -0.626 |
| GGAAUUCGAGAAGUAACUATT against Dbt | inactive: 0.0571 |
| CCAUCCACAGCAGUCCCAATT against Olfr530 | inactive: -0.104 |
| GGGAUUCCCAUCAUUGUGGTT against Gmpr | inactive: -0.785 |

| Sequence | z-score |
| --- | --- |
| CCUGACACUUUCCUUACUUTT against Dbndd2 | inactive: -0.586 |
| GGAUGAAAUCGCCAUAUGUTT against Snrnp48 | inactive: -1.89 |
| GCUAGCAGACCUAAACAAGTT against Scap | inactive: -0.475 |
| GCCGGUUCAACAUCUAAUATT against Fgl2 | inactive: -0.583 |
| GGACAACACCCUGAUGAUATT against Vmn1r208 | inactive: -1.07 |
| CCUAUUUUUCUACUAACUGTT against Pkp2 | inactive: 1.12 |
| GGAGACCAUGAAUUUAAUGTT against Cmtr1 | inactive: 0.476 |
| GCAGGUGGUUGUUUCUUAGTT against Slco2a1 | inactive: -0.202 |
| GCAAUGCUCUAAUCCACUCTT against Npas4 | inactive: 0.654 |
| GGCCAUCAGAGAAAAGAUATT against Akr1d1 | inactive: -0.597 |
| GGAAAGACUUUGAAACUUUTT against Dach2 | inactive: 0.121 |
| GCCAAAUUGUCCCGGGCAUTT against Usp39 | inactive: 0.457 |
| GGAUUCUCGGUGAAAAAGATT against Fastkd3 | inactive: 1.78 |
| GGCUUUAACAUCAAAGCAATT against Mgarp | inactive: 0.0459 |
| GGAUCAAGCAAACUUUGAUTT against Gm9801 | inactive: -0.77 |
| GGUCCUCUAAAGAAUAAAGTT against Cela3b | inactive: 0.541 |
| GGAUUAUUUCCUUUCUUUGTT against Lmntd1 | inactive: 1.27 |
| GGCACAAAGCGUAUACUGATT against Ugt2a2 | inactive: -1.65 |
| CCCUAUACUGCCCGAAUCUTT against Peli3 | inactive: -1.3 |
| CGUGAUCGGGUACUGAUGUTT against Bscl2 | inactive: 1.2 |
| GGACAUUAGGGAAGUGCCUTT against Olfr281 | inactive: -0.0117 |
| GCCUUUGCAUGGCAGUCUATT against Zfp825 | inactive: -0.716 |
| GCAUUUCGAAGUGCCCUUGTT against Gpr146 | inactive: 1.22 |
| GCCCAACUGCUACCUGUUUTT against Mansc1 | inactive: -1.61 |
| GCAUGCAGUCAAGUCAACGTT against Pnoc | inactive: -0.609 |
| GCCCAUGACCAGUUCAAGUTT against Actn4 | inactive: 0.63 |

11 neighbouring records already listed, quoted:

| Sequence | z-score |
| --- | --- |
| GGCUUGACAACCUCAUGUCTT against Rnf41 | inactive: 0.716 |
| CGUGUGCCACUAAUUGGCUTT against Urod | inactive: 0.852 |
| GGACACAUGGAAGAGGAUUTT against Rnf139 | inactive: 0.513 |
| GCCGACAUCUUUGCUCAGATT against Tmco4 | inactive: 1.51 |
| GGCAAAAUAAAGGAUAGGATT against Prpf4b | inactive: -0.626 |
| GGAAUUCGAGAAGUAACUATT against Dbt | inactive: 0.0571 |
| CCAUCCACAGCAGUCCCAATT against Olfr530 | inactive: -0.104 |
| GGGAUUCCCAUCAUUGUGGTT against Gmpr | inactive: -0.785 |
| CCUGACACUUUCCUUACUUTT against Dbndd2 | inactive: -0.586 |
| GGAUGAAAUCGCCAUAUGUTT against Snrnp48 | inactive: -1.89 |
| GCUAGCAGACCUAAACAAGTT against Scap | inactive: -0.475 |
